# Some of the results follow.
# Amino acid sequences for entries named in this document (tags omitted). A change or cut given only in a name is not applied to a line headed by its entry.
# UniProt Q00796: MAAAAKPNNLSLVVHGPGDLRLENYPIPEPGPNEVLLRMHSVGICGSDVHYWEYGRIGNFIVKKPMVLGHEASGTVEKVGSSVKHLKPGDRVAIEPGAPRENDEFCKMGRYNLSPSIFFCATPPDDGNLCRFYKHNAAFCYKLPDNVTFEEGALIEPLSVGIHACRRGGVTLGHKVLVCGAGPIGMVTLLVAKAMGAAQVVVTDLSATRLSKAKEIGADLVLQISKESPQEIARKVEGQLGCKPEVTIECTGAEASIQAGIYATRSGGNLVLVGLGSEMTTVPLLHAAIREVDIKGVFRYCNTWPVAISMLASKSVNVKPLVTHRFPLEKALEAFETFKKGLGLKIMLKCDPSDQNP
# UniProt P09234, whole entry, looked up: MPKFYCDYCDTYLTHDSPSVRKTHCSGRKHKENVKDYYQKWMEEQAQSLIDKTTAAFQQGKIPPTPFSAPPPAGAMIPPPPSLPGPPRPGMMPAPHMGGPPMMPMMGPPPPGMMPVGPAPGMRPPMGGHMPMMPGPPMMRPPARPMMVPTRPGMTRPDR
# UniProt O94964: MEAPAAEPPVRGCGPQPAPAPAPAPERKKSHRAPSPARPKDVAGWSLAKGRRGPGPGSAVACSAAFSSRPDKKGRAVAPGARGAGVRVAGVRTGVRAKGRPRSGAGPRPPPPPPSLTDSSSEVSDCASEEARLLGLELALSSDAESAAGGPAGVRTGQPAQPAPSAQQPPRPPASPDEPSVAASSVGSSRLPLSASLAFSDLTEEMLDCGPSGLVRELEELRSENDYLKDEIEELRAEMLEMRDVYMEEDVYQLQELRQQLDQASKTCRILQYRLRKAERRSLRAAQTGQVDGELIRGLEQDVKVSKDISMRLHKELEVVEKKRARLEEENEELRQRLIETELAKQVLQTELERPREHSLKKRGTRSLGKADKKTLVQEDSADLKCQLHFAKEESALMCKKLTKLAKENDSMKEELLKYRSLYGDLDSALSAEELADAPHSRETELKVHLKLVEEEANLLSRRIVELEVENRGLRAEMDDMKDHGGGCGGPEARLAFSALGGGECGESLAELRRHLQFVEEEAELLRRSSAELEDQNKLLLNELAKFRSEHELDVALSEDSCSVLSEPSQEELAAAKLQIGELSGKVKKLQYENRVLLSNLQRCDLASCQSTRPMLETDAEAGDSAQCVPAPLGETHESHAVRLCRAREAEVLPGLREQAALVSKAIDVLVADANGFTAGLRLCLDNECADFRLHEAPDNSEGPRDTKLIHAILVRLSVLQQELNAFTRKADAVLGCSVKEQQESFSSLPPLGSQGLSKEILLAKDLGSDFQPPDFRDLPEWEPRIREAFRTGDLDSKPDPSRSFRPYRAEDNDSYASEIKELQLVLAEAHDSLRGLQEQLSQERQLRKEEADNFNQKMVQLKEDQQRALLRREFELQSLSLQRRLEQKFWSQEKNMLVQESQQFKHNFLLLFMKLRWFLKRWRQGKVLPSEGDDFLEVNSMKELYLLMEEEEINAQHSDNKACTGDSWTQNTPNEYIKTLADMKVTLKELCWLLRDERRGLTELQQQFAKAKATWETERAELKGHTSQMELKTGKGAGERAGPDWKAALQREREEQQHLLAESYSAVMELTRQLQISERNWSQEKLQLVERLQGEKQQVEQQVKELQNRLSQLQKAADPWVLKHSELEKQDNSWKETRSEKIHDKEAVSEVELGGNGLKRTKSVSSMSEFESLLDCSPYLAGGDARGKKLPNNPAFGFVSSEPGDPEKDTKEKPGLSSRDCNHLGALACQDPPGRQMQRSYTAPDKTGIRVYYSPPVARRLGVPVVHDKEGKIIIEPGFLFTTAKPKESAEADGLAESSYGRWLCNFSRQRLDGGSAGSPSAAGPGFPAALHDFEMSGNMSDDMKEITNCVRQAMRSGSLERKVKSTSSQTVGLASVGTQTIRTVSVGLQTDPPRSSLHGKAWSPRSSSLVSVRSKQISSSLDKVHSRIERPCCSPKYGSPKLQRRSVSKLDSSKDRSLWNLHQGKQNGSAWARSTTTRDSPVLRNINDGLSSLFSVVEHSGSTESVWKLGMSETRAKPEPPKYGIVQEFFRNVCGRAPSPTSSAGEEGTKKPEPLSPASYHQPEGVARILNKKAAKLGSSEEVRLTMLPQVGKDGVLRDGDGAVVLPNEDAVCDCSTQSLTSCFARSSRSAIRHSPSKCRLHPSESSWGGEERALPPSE
# UniProt Q8NB90: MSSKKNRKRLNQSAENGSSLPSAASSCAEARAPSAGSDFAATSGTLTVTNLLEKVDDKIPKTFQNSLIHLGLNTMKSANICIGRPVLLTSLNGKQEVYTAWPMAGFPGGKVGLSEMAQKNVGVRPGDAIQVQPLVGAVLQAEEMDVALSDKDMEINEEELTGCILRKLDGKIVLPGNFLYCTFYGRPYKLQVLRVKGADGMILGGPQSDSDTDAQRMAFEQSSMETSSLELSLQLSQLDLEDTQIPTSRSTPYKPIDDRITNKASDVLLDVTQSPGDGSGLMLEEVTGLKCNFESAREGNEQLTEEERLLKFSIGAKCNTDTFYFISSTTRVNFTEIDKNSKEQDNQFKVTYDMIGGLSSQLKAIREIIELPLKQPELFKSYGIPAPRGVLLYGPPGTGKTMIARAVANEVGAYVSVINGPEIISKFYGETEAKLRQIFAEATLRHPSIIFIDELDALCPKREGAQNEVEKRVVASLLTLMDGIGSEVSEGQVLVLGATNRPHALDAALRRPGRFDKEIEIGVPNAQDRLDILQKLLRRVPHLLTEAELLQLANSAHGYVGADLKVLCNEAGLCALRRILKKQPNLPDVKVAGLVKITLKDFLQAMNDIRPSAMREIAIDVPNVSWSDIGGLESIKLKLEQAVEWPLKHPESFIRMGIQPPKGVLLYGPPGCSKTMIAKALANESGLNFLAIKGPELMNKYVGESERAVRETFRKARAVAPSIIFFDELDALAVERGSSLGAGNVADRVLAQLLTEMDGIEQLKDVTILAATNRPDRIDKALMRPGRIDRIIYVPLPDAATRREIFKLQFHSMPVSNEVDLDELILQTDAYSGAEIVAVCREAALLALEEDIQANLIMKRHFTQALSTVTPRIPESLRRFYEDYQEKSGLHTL
# UniProt Q8N0X7: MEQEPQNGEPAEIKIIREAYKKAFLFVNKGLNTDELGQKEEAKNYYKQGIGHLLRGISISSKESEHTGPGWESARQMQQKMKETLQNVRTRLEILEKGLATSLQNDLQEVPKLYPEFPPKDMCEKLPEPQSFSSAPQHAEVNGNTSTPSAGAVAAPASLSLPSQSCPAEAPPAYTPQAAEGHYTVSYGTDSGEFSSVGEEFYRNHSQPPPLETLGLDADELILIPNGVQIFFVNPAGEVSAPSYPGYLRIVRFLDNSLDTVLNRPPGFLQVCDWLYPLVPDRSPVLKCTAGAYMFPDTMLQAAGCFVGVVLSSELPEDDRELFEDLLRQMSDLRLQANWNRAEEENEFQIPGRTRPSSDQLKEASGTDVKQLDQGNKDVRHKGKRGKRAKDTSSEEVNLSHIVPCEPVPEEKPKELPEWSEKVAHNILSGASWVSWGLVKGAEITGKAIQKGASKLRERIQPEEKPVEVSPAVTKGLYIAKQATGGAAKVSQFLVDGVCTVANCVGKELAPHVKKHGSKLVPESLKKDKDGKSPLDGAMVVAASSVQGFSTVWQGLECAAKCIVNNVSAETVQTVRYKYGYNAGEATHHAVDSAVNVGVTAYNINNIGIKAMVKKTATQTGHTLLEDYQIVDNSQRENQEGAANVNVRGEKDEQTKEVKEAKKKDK
# UniProt Q8TCT7: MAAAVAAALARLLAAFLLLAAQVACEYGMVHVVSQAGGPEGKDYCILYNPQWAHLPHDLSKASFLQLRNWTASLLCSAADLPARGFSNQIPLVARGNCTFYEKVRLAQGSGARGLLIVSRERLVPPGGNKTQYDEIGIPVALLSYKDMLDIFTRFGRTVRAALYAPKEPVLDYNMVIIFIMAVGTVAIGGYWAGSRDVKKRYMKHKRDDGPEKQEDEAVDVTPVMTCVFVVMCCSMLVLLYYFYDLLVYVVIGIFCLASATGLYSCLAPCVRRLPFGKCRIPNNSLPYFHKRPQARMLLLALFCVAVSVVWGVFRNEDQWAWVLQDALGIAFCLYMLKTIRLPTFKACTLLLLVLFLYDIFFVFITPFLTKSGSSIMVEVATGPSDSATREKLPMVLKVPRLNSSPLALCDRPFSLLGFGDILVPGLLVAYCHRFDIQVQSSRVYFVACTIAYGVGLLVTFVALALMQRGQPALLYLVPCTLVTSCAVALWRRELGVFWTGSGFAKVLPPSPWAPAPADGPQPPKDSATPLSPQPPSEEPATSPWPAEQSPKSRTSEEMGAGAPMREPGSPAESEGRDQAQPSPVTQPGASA
# UniProt Q86XZ4: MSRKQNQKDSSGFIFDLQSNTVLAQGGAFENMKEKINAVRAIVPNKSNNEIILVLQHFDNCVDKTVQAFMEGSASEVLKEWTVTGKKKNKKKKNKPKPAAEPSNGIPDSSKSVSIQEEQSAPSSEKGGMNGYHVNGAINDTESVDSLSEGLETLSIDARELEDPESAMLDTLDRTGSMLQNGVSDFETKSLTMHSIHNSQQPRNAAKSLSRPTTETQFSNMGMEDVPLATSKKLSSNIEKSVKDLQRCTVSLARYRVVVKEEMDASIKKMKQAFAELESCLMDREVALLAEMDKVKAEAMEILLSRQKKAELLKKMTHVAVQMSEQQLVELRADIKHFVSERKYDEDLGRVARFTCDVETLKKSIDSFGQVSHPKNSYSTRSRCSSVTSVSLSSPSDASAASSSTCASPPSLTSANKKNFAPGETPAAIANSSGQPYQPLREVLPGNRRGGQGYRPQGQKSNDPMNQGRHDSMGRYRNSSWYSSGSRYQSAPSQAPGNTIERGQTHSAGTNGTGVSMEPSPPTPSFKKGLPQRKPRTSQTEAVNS
# UniProt Q96RF0: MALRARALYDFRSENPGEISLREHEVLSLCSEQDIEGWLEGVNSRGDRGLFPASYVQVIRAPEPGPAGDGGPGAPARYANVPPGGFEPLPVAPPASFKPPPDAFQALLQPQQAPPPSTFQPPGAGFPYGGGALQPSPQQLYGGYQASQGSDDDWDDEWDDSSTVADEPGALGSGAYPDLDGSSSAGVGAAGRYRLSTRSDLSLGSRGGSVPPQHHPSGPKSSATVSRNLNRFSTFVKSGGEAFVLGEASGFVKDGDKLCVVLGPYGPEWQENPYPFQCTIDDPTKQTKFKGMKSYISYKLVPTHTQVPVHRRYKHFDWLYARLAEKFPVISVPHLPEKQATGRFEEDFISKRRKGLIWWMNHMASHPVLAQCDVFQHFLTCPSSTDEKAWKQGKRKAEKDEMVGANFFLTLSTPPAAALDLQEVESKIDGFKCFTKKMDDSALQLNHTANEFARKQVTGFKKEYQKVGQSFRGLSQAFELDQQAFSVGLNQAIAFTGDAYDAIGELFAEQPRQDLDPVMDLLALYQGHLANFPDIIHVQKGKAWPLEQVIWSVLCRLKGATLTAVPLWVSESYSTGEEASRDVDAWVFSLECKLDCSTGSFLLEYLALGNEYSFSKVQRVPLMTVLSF
# UniProt P62318, whole entry, looked up: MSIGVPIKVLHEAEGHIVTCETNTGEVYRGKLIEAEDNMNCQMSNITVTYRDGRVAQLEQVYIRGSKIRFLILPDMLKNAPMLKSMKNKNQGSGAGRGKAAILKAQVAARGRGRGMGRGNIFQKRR
# UniProt O60749: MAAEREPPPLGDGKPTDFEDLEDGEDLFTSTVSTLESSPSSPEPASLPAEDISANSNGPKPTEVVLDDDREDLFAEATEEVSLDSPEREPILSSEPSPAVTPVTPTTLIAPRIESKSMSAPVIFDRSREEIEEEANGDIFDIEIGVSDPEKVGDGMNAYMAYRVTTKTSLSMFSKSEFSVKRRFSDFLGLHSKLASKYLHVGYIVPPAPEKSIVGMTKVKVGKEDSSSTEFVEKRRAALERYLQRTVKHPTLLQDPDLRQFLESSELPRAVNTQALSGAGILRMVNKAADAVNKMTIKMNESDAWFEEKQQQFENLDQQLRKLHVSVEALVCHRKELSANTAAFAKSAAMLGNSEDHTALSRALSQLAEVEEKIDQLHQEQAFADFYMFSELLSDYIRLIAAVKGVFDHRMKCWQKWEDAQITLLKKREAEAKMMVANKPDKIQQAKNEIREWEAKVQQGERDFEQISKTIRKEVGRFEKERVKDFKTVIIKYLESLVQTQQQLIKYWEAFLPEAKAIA
# Compound: CC1Cc2ccccc2N1C(=O)C1CCCN(C1)C(=O)CCl (mixture of isomers) [TRIM25 ligand 11 (diastereomer mixture)]
# Assay: probe-labelled cysteine peptide fold change vs DMSO (competition) (log2 fold change); higher = less target engagement (more negative = stronger competition)
# Details: THP-1, incubation time: 4 h
# 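Also: competitive chemoproteomic profiling in live THP-1 cells with an iodoacetamide desthiobiotin (IA-DTB) probe, comparing probe-labelled peptide intensities in compound-treated cells against DMSO-treated controls.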
Target,probe-labelled cysteine peptide fold change (10 µM),probe-labelled cysteine peptide fold change (50 µM)
SORD_Q00796_120_YNLSPSIFFCATPPDDGNLCR (UniProt Q00796),0.0586,0.497
SNRPC_P09234_6_FYCDYCDTYLTHDSPSVR (UniProt P09234),-0.122,-0.874
SOGA1_O94964_984_DCNHLGALACQDPPGR (UniProt O94964),0.113,-0.189
SPTLC2_O15270_139_IRDNWNRPICSVPGAR (UniProt O15270),-0.185,0.0938
SRCAP_Q6ZRS2_1993_FIFVMPPVEAPPPSLHACHPPPWLAPR (UniProt Q6ZRS2),-0.00141,-0.0784
SPATA5_Q8NB90_574_VLCNEAGLCALRR (UniProt Q8NB90),-0.161,-0.0738
SPART_Q8N0X7_562_CIVNNVSAETVQTVR (UniProt Q8N0X7),-0.0377,0.00854
SPPL2B_Q8TCT7_45_DYCILYNPQWAHLPHDLSK (UniProt Q8TCT7),-0.0202,-0.138
SPATS2_Q86XZ4_61_SNNEIILVLQHFDNCVDK (UniProt Q86XZ4),-0.157,-0.218
SNX18_Q96RF0-2_570_CNTISFATLAEIHHFHQIR (UniProt Q96RF0),0.155,0.111
SNRPD3_P62318_41_LIEAEDNMNCQMSNITVTYRDGR (UniProt P62318),-0.143,-0.109
SORD_Q00796_130_YNLSPSIFFCATPPDDGNLCR (UniProt Q00796),0.484,0.338
SPTBN1_Q01082_861_MFSEADACELWIDEK (UniProt Q01082),-0.0783,-0.00812
SNX2_O60749_332_LHVSVEALVCHR (UniProt O60749),0.0656,-0.105
